Holding throughout (assay): co-IP; HEK293T transfected with both tagged partners, harvested 48 h after transfection; IP by one tag, IB by the other; with or without SeV (40 HAU/ml), with or without co-expressed HSCARG or HSCARG shRNA
In one assay the target is T1, Flag-TBK1 (UniProt Q9UHD2).
T1 sequence: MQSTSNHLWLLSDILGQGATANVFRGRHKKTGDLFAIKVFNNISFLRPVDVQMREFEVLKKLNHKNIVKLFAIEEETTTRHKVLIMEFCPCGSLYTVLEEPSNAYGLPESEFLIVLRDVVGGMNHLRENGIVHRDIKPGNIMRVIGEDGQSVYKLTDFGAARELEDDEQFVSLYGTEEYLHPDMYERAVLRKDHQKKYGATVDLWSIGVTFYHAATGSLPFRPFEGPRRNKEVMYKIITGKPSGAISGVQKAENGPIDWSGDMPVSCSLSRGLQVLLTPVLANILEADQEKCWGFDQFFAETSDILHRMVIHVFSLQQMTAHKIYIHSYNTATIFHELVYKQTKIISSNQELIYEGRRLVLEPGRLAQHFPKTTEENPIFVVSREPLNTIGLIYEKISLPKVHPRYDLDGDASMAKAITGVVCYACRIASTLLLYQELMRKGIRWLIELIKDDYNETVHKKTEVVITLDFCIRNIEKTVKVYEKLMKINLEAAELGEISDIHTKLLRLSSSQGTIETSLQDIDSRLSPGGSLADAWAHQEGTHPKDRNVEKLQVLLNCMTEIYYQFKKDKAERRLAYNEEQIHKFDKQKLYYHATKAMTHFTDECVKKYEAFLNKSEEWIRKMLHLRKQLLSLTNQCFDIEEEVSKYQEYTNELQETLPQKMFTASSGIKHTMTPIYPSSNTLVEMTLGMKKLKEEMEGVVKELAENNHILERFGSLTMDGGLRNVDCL

Amino acid sequences for entries named in this document (tags omitted).
UniProt Q96FW1: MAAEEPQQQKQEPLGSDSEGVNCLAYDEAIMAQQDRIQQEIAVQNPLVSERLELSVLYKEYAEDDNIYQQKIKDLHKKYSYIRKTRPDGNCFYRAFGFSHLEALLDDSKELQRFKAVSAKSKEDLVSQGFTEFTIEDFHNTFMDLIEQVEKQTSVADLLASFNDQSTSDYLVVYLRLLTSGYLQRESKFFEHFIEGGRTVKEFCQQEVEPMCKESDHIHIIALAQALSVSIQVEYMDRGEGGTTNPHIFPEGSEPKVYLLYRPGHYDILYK
UniProt Q9HBL8: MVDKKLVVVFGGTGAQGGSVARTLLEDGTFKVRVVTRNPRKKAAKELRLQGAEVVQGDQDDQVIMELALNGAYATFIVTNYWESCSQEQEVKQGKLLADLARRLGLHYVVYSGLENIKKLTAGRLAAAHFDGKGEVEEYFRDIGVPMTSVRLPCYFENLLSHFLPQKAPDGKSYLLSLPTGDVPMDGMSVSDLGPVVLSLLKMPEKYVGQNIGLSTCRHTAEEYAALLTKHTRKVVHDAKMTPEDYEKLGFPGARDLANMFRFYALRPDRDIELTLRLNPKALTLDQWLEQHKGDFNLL

The target of a further assay is T2, Flag-TRAF3 109–347 (UniProt Q13114).
T2 sequence: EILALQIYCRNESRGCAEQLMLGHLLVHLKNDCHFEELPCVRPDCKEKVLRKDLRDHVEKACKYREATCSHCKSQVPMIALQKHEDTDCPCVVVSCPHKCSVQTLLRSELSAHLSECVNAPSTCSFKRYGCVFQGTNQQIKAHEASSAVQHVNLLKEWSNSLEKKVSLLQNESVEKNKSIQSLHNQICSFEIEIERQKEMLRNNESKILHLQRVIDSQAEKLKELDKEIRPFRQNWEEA

The target in another assay is Flag-OTUB1 (UniProt Q96FW1).

These are yes or no findings as the source states them, for the method shown. Binding seen in cells or lysates may run through a third protein. Some binding calls cover weakened binding; strength is not graded here. For part of these data: Where a sequence is shown, tags or fusion partners need not be part of it.

Regarding Myc-HSCARG (from UniProt Q9HBL8 1-299), in the assay with Flag-TBK1, the binding entry is recorded as “no binding”.

HA-HSCARG (from UniProt Q9HBL8 1-299): the binding entry in the assay with Flag-TRAF3 109–347 and with Flag-OTUB1 was “binds” in each case.

Source of the values: paper PMC3999155.
